Reference: PubChem BioAssay AID602196 (INSERM, 2012)
Assay: 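Knock-downs that protect lung cancer cells from cisplatin or sensitise them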. Cell system: human A549 lung cancer cells. Reagents: siRNA pair against human genes. Time to read-out: 48 h transfection before cisplatin; time from cisplatin to read-out not stated. Conditions: cisplatin at a dose killing half of control-siRNA cells; exact dose and duration not given. Read-out: 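Shift in cisplatin death relative to control siRNA, from -50 (all cells die) to +50 (no cells die); siRNAs harmful on their own scored 0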. Direction: two-siRNA summed score (-2 to +2): higher = both siRNAs protect from cisplatin killing; -2 means both sensitise; mean protection from cisplatin (shift in death) and protection from cisplatin (shift in death), siRNA C and protection from cisplatin (shift in death), siRNA D: higher = protection from cisplatin killing. Rule for the call: 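siRNAs harmful alone (LDH or WST-1) get 0; others get +1 for less and -1 for more cisplatin killing; genes are active when the two siRNAs give the same sign, summing to ±2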. Calls: active = both siRNAs shift cisplatin killing the same way; inactive = no consistent shift, or siRNA harmful alone.
This is an unselected part of about 23,000 reagents tested. In the full data, 455 (2%) got an active call. 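Active includes both protection and sensitisation; some change values fall well beyond the stated -50 to +50 range.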 Unmarked entries are inactive. The record does not give: the amount of reagent.

two-siRNA summed score (-2 to +2)	mean protection from cisplatin (shift in death) (%)	protection from cisplatin (shift in death), siRNA C (%)	protection from cisplatin (shift in death), siRNA D (%)	Gene
0	10.5	15.9	5.2	GALK2 (galactokinase 2)
0	5.3	-2.5	13	LENEP (lens epithelial protein)
0	4.6	5.1	4	CCSER1 (coiled-coil serine rich protein 1)
-1	-16.4	-6	-26.9	HRK (harakiri, BCL2 interacting protein)
1	24.1	39.4	8.8	ALG11 (ALG11 alpha-1,2-mannosyltransferase)
0	-9.3	1.2	-19.8	DNAJC28 (DnaJ heat shock protein family (Hsp40) member C28)
0	0.3	12.3	-11.7	LOC400920
0	-8.7	-13.8	-3.6	LCT (lactase)
-1	-15.5	-23.8	-7.3	MSH5 (mutS homolog 5)
0	3.4	-1.4	8.2	LOC402687
0	9.1	6.4	11.9	RIGI (RNA sensor RIG-I)
-1	-0.6	11.1	-12.3	GSDMA (gasdermin A)
-1	-11.3	-6.7	-15.9	ADRA1B (adrenoceptor alpha 1B)
-1	-13.7	-10.7	-16.7	ITGB3 (integrin subunit beta 3)
0	-5.9	-2.6	-9.2	MLPH (melanophilin)
0	-0.7	-8	6.6	ZNF625 (zinc finger protein 625)
0	3.6	6.8	0.4	LOC401256
-1	-5.9	-15.9	4.2	SUPT5H (SPT5 homolog, DSIF elongation factor subunit)
0	-4.1	-3.8	-4.4	LOC391809
-1	-7	-18.3	4.3	SS18 (SS18 subunit of BAF chromatin remodeling complex)
0	-7.6	0.2	-15.4	LEF1 (lymphoid enhancer binding factor 1)
0	-6.4	-2.3	-10.6	FNDC9 (fibronectin type III domain containing 9)
-1	-6.1	13.7	-25.8	TMC5 (transmembrane channel like 5)
1	10.3	15.1	5.6	LYPD6B (LY6/PLAUR domain containing 6B)
-1	-3.9	9.1	-16.9	KLK14 (kallikrein related peptidase 14)
0	1.5	-2.8	5.8	PAGE4 (PAGE family member 4)
1	7.6	8.2	6.9	ZNF233 (zinc finger protein 233)
0	13.7	25.9	1.5	KRTAP4-12 (keratin associated protein 4-12)
0	1.7	-4	7.4	KLHL32 (kelch like family member 32)
0	-4.3	-5.2	-3.4	MYOD1 (myogenic differentiation 1)
1	7.3	15.6	-1.1	TBK1 (TANK binding kinase 1)
1	21.9	13.9	30	LOC440399
0	-2.3	4.5	-9	EPB41L4A (erythrocyte membrane protein band 4.1 like 4A)
-1	-13.5	-33.3	6.3	RAP1GAP (RAP1 GTPase activating protein)

An excerpt from above, reduced to “protection from cisplatin (shift in death), siRNA C (%)”.
HRK (harakiri, BCL2 interacting protein): -6
ALG11 (ALG11 alpha-1,2-mannosyltransferase): 39.4
DNAJC28 (DnaJ heat shock protein family (Hsp40) member C28): 1.2
LOC400920: 12.3
LCT (lactase): -13.8
MSH5 (mutS homolog 5): -23.8
LOC402687: -1.4

The listing continues.
two-siRNA summed score (-2 to +2)	mean protection from cisplatin (shift in death) (%)	protection from cisplatin (shift in death), siRNA C (%)	protection from cisplatin (shift in death), siRNA D (%)	Gene
0	-1.3	-14.1	11.6	LOC440089
1	8.3	18.6	-2	LOC392343
0	-5.9	-2	-9.9	NPY1R (neuropeptide Y receptor Y1)
1	6.6	-4.3	17.5	C1QTNF5 (C1q and TNF related 5)
1	10.6	-0.5	21.8	FAM9C (family with sequence similarity 9 member C)
0	-13.3	-13.9	-12.7	PHF20L1 (PHD finger protein 20 like 1)
-1	-15.5	-25.7	-5.3	ADRA1D (adrenoceptor alpha 1D)
0	-9.3	-8.3	-10.3	TMEM108 (transmembrane protein 108)
-1	-24	-41	-7.1	PLXNB1 (plexin B1)
0	4.5	2.3	6.6	ZNF383 (zinc finger protein 383)
-1	-15	-0.9	-29.2	LOC389416
0	-0.7	-5.8	4.4	GYPA (glycophorin A (MNS blood group))
1	11	14.9	7	LOC442715
0	-2.4	6.5	-11.3	IFNAR2 (interferon alpha and beta receptor subunit 2)
-1	7.6	-10	25.2	LOC440826
1	10	30.1	-10.1	PPP3CC (protein phosphatase 3 catalytic subunit gamma)
0	7.8	6.4	9.2	SLC12A5
1	10.3	8	12.6	ENPP7 (ectonucleotide pyrophosphatase/phosphodiesterase 7)
0	-5.7	-0.1	-11.3	DOLPP1 (dolichyldiphosphatase 1)
0	6	9.6	2.4	ZNF607 (zinc finger protein 607)
-1	1.3	-9.3	11.9	PTPN18 (protein tyrosine phosphatase non-receptor type 18)
0	-0.2	6.5	-6.9	LTK (leukocyte receptor tyrosine kinase)
0	15.4	-3.4	34.3	LOC158104
